Measured values published in patent US8562986B2, “Engineered anti-alpha V-integrin hybrid antibodies” (Merck Patent GmbH, priority 2007, dated 2013).

Assay: Transient expression in PER.C6 (human Fc ELISA)

B1: 17E6-g2h(FN−>AQ): chimeric control: 17E6 variable regions with g2h(FN to AQ) constant region (antibody, V domains shown)
VH: QVQLQQSGAELAEPGASVKMSCKASGYTFSSFWMHWVKQRPGQGLEWIGYINPRSGYTECNEIFRDKATMTADTSSSTAYMQLSGLTSEDSAVYYCASFLGRGAMDYWGQGTSVTVSS
VL: DIQMTQTTSSLSASLGDRVIISCRASQDISNYLSWYQQKPDGTVKLLIFYTSKLHSGVPSRFSGSGSGTDYSLTISNLDQEDIATYFCQQGNTFPYTFGGGTKVEMR
Transient expression in PER.C6 by HuFc-ELISA, Day 7 (Day 7): 5425 ng/mL | Fc ELISA (transient transfections, replicate values of one cell): 4.9 µg/mL and 4.0 µg/mL

Where “and” joins values, the source holds several entries; their conditions need not be identical. Equal values may be shown once.
